Results from paper PMC4041446, “Eukaryotic and archaeal TBP and TFB/TF(II)B follow different promoter DNA bending pathways”.

Molecular target: T1, Sulfolobus acidocaldarius TATA-binding protein (Sulfolobus acidocaldarius) (UniProt Q9UWN7)
T1 sequence: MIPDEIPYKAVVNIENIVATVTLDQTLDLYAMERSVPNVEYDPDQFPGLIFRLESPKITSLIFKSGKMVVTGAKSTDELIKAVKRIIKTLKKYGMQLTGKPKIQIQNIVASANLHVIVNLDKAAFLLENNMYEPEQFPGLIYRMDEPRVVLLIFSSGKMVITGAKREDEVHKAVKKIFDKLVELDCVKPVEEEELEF
Assay: native gel or EMSA; SaTBP and SaTFB incubated with promoter DNA (DNA_SSV); ternary complex on DNA; supershift with anti-SaTFB and anti-SaTBP antibodies; conditions are in Supplementary Figure S4; both purified

binding: binds
Substance: Sulfolobus acidocaldarius transcription factor B (TFB1), C-terminally His-tagged

Results are given in words; binding and its absence hold for the method and conditions named. A result given as binding can be weak or reduced; the word gives no strength.
